PubChem BioAssay AID1259405, NCATS | 2018
This is a random part of about 50,000 deposited reagents. Over the whole deposit, about 4,000 (8%) are marked active. 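Mouse siRNA library applied to hamster cells; one well for each siRNA.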 Entries without a mark were called inactive. Reagents against one gene are numbered here.

Assay: 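Silenced genes that increase secreted GFP made by CHO cells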 (primary screen)
System: Chinese hamster CHO-K1 ovary cells with stable secreted eGFP expression
Knock-down reagent: single siRNA against mouse genes, 0.8 pmol siRNA per well (2 µl of 400 nM stock)
Duration: 3 days
Measured: 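Per-well intracellular GFP measured by laser scanning cytometry, plus viability from ATP luminescence, each relative to plate median of non-targeting control wells, in %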
Reading the numbers: GFP, % of control: higher = more GFP per well, higher productivity; viability (ATP), % of control: higher = more viable cells (more ATP)
Rule for the call: 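Called active when intracellular GFP, relative to negative control, is at or above 120%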

The first 4 records, ahead of the listing:
no.	target gene	reagent no.	GFP, % of control	viability (ATP), % of control
1	Sertm1	1	71.8	51.9
2	Sertm1	2	109	106
3	Sertm1	3	102	102
4	Sh2b1	1	81.4	71.7

Results, repeating the preview:
no.	target gene	reagent no.	GFP, % of control	viability (ATP), % of control
1	Sertm1	1	71.8	51.9
2	Sertm1	2	109	106
3	Sertm1	3	102	102
4	Sh2b1	1	81.4	71.7
5	Sh2b1	2	76.6	65.9
6	Sh2b1	3	76	97.6
7	Pla2g2e	1	97.8	77.3
8	Pla2g2e	2	77	55.2
9	Pla2g2e	3	61.4	62.1
10	Tm2d1	1	69.2	64.4
11	Tm2d1	2	57.5	60
12	Tm2d1	3	121 (active)	86.6
13	Cryga	1	89.3	70.8
14	Cryga	2	54.9	59.2
15	Cryga	3	128 (active)	117
16	Tchp	1	89.6	64.1
17	Tchp	2	69	81.6
18	Tchp	3	101	113
19	Or7g30	1	73	89.7
20	Or7g30	2	79.4	58.5
21	Or7g30	3	53.8	73.1
22	Myh1	1	84.3	70.5
23	Myh1	2	60.6	74.7
24	Or14a256	1	52.3	49.1
25	Or14a256	2	85.5	61.6
26	Or14a256	3	56.6	86.4
27	Rrp8	1	98	74.3
28	Rrp8	2	142 (active)	82.2
29	Rrp8	3	34.6	38.6
30	Nuak1	1	102	90.6
31	Nuak1	2	109	102
32	Nuak1	3	85.1	62.1
33	Lgr5	1	154 (active)	122
34	Lgr5	2	42.3	45.8
35	Lgr5	3	85	71.2
